{
  "source": "paper PMC8654841",
  "biological_target": "T1, Tenascin-R (rat (endogenous in synaptosomes)) (UniProt Q05546)",
  "T1 sequence": "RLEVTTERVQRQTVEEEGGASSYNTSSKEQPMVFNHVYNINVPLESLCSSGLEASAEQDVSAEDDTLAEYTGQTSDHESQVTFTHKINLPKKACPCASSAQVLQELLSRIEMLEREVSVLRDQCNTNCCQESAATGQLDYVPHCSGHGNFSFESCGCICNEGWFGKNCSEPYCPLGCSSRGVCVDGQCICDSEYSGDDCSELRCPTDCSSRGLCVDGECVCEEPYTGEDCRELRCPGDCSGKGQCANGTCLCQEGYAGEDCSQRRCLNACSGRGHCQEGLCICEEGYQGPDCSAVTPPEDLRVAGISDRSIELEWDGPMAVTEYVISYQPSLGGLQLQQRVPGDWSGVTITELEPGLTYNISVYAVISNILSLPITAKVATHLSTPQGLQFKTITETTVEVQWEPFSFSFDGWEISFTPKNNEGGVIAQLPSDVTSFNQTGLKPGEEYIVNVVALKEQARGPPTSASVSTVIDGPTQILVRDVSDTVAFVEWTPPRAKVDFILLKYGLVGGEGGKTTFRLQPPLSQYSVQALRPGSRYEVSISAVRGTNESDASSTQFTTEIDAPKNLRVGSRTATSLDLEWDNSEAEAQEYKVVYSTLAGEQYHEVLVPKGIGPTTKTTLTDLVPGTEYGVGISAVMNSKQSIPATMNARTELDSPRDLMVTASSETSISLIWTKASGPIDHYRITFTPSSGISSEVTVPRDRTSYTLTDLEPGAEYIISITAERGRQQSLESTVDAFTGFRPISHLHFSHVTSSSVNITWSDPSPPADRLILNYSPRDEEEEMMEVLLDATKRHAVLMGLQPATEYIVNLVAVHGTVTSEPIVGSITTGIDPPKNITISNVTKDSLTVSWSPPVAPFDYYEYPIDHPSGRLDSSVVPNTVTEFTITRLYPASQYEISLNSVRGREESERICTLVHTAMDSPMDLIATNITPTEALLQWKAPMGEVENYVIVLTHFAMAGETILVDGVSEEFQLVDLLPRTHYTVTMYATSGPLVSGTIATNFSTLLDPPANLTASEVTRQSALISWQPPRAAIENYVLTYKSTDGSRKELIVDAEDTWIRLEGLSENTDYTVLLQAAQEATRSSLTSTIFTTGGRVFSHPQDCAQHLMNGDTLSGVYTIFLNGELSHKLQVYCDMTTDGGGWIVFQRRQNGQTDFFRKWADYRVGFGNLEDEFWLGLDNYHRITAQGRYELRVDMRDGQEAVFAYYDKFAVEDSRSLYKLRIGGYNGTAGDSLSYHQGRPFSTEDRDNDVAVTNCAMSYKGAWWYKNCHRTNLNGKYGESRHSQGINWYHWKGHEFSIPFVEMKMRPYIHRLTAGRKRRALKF",
  "assay": "co-IP; rat brain synaptosomes incubated with anti-TNR antibody (1 h, 4 °C), permeabilized with 4% CHAPS, supernatant captured on Protein G Dynabeads, washed, eluted in SDS sample buffer; Western blot with anti-TNR and anti-Dynamin 1,2,3",
  "note": "These are yes or no findings as the source states them, for the method shown. In cells and extracts the contact can be indirect. A result given as binding can be weak or reduced; the word gives no strength.",
  "data": [
    {"substance": "dynamin (rat (endogenous in synaptosomes))", "values": [
      {"measurement": "binding", "value": "binds"}
    ]}
  ]
}
